The results in this text go back to PubChem BioAssay AID2685 (National Center for Advancing Translational Sciences (NCATS), 2010).

A short description of this test: qHTS Assay for Lipid Storage Modulators in Drosophila S3 Cells.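 As to cell number change: cells counted by Cell Tracker Red CMTPX staining in the red channel.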 Particulars: BODIPY lipid droplet fluorescence, 18-24 h; for cell number change: measured here: cell count max response, cells fed with added oleic acid. The procedure, abridged:
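Laser-scanning cytometry quantifies lipid droplet accumulation (500–530 nm total intensity; droplet/cell object ratio) in oleic acid-fed (400 uM added) Drosophila S3 cells treated with a concentration series. 20 uM Triacsin C defined 100% inhibition.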
In general terms: In qHTS, concentration-response curves come from the screen itself.

Where [1] appears, read: measured here: cell number channel AC50, cells fed with added oleic acid.
Where [2] appears, read: measured here: lipid fluorescence (Fed channel) AC50, cells fed with added oleic acid.

This is one part of the list. The main result of the screen is listed elsewhere. These columns were measured beside it and carry no call. Most of these compounds were active or inconclusive in the main read-out, so they are no random draw. Words in brackets tell the shape of the fitted curve; partial curves, single points and poor fits give uncertain potencies.

The term AC50 denotes the midpoint of the concentration-response curve, whichever way the signal moves. For the compound `O=C(Cc1ccccc1)N/N=C/c1ccc2cccc(O)c2n1`, the cell number change was -45.8%. The AC50 under setting [1] is 16.4 µM [falling, single point]. For the same compound, the AC50 under setting [2] is 25.9 µM [falling, partial curve, poor fit].
As for `O=C(O)c1cccc(Nc2c3ccccc3nc3ccccc23)c1`, the cell number change was -31.5%. Further, under setting [1], the AC50 is 14.6 µM [falling, single point].
Regarding `COC(=O)c1sc(-c2cccs2)cc1N`, the cell number change was 40.8%. Besides, under setting [1], the AC50 was 18.4 µM [rising, single point].
`Cn1nc(-c2ccc(Cl)cc2)c2cc(C(=O)N3CCN(C(=O)c4ccco4)CC3)sc21`: the cell number change is -85.1%. Also, under setting [1], the AC50 is 29.1 µM [falling, single point]. For the same compound, the AC50 under setting [2] was 29.1 µM [falling, single point].
Regarding `CC1CC(C)CN(c2cc(N(C)CCO)c([N+](=O)[O-])c3nonc23)C1` (stereo not given), the AC50 under setting [1] is 6.51 µM [rising, single point].
Regarding `CCc1noc(C)c1C(=O)NCCc1ccc(OC)c(OC)c1`, the cell number change was -13.8%.
For `Cc1n[nH]c(=O)c2c(NC(=O)CSc3nncn3C(C)C)oc(C)c12`, the cell number change came to 14.1%. Further, the AC50 under setting [2] was 6.51 µM [falling, single point].
With `N#Cc1c(-c2ccco2)nc(SCC(=O)Nc2cccc(Cl)c2)[nH]c1=O`, the cell number change is -14.5%. Moreover, the AC50 under setting [1] was 6.51 µM [falling, single point]. Besides, the AC50 under setting [2] was 6.51 µM [falling, single point].
Take `Cc1ccc2nc(N3CCN(C(=O)c4ccc(F)cc4)CC3)c(C#N)cc2c1`: the cell number change amounted to 1.81%. Moreover, the AC50 under setting [2] is 29.1 µM [falling, single point].
As to `O=C(CCn1cnc(-c2ccccc2)c1-c1ccccc1)N/N=C/c1ccc(O)cc1`, the cell number change worked out at 16.9%. The AC50 under setting [2] is 16.4 µM [rising, single point].
For `CCN(CC(=O)Nc1ccccc1OC)C(=O)C1CC2C=CC1C2` (stereo not given), the cell number change amounted to 0.557%. For the same compound, under setting [1], the AC50 was 6.51 µM [rising, single point]. Also, the AC50 under setting [2] was 1.16 µM [falling, full curve].
Regarding `Cc1ccc(Cl)c(OCC(O)CN(CCO)CCO)c1` (stereo not given), the cell number change was -33.9%. Besides, the AC50 under setting [1] is 29.1 µM [falling, single point]. Further, the AC50 under setting [2] was 2.31 µM [rising, partial curve, poor fit].
As for `Cn1c(Cc2ccccc2)nnc1SCC(=O)Nc1cccc(S(=O)(=O)NC2=NCCCCC2)c1`, the cell number change amounted to 10.7%.
With `CNS(=O)(=O)c1ccc(NC(=O)Nc2cccc(F)c2)cc1`, the cell number change was -41.1%. Under setting [1], the concentration at half-maximal activity (AC50) is 16.4 µM [falling, partial curve, poor fit].
As for `C/C(=N\NC(N)=O)C1(C)CCCCC1`, the cell number change is -53.2%. For the same compound, the AC50 under setting [1] is 29.1 µM [falling, single point]. Also, the AC50 under setting [2] is 3.66 µM [falling, partial curve].
On to `O=C(CNC(=O)Cc1ccccc1)N=Nc1c(O)[nH]c2ccccc12`, for which the cell number change stood at 22.2%.
`CN(Cc1c(C(=O)N/N=C/c2ccccc2F)nnn1-c1nonc1N)c1ccccc1`: the cell number change was -18.3%. Moreover, under setting [2], the AC50 is 16.4 µM [falling, partial curve, poor fit].
As to `Cc1ccc(C)c(OCc2cc(C(=O)N(C)Cc3nccn3C)no2)c1`, the cell number change is 0.984%. For the same compound, under setting [2], the AC50 is 4.11 µM [rising, single point].
For `Cn1c(SCC(=O)Nc2ccccc2F)nnc1-c1cc2ccccc2o1`, the cell number change turned out to be 25%.
Turning to `Cc1ccc(CNC(=O)COC(=O)c2ccc(Br)cc2)cc1`, the cell number change is -47.1%. Moreover, the AC50 under setting [1] is 0.411 µM [falling, full curve, poor fit]. Moreover, the AC50 under setting [2] is 0.731 µM [falling, full curve, poor fit].
Take `COc1ccc(-c2nc(S(=O)(=O)c3ccccc3)c(N3CCOCC3)o2)cc1`: the cell number change turned out to be 18.4%. For the same compound, under setting [2], the AC50 is 2.06 µM [rising, full curve].
`O=S(=O)(c1ccc(Br)c2nsnc12)N1CCOCC1`: the cell number change worked out at 3.69%. Further, the AC50 under setting [2] is 0.164 µM [rising, full curve, poor fit].
As for `O=C(COC(=O)COc1ccc(Cl)cc1Cl)NC1CCCC1`, the half-maximal activity concentration (AC50) under setting [2] is 29.1 µM [rising, single point].
On to `O=c1cc(-c2c(F)c(F)c(F)c(F)c2F)oc2c(F)c(F)c(F)c(F)c12`, for which the cell number change was -53.5%. In addition, the half-maximal activity concentration (AC50) under setting [1] was 2.91 µM [falling, partial curve]. Further, under setting [2], the AC50 was 8.2 µM [falling, partial curve].
As to `CCN1CCN(C(=O)CCc2nc3ccccc3n2-c2ccccc2)CC1`, the cell number change was 42.6%. Further, the AC50 under setting [2] was 18.4 µM [rising, single point].
Turning to `CC(C)C[C@H](NC(=O)c1nc[nH]c1C(=O)N1CCNCC1)C(=O)OCc1ccccc1`, the cell number change is -9.29%. The AC50 under setting [2] was 29.1 µM [rising, single point].
Take `CC1=CC(C#N)(C#N)C(C#N)(C#N)C(c2ccccc2)N1` (stereo not given): the cell number change is -1.29%.
Take `CN1CCN(C(=O)c2cc(=O)c3cc(Cl)ccc3o2)CC1`: the AC50 under setting [2] is 20.6 µM [rising, single point].
For `Cc1ccc(S(=O)(=O)N2CCC(C(=O)OCC(=O)N3CCCC(C)C3)CC2)cc1C` (stereo not given), the cell number change is -50%. Besides, the AC50 under setting [1] is 6.51 µM [rising, partial curve, poor fit]. For the same compound, under setting [2], the AC50 is 2.06 µM [rising, single point].
`COc1cccc(OCC(O)CNC(=O)c2oc3ccc(C)cc3c2C)c1` (stereo not given): the cell number change was -5.51%. Further, the AC50 under setting [2] was 29.1 µM [rising, single point].
For `COc1ccccc1NC(=O)CSc1ccc(-c2ccc(-n3ccnc3)cc2)nn1`, the cell number change is -14.5%. Further, the AC50 under setting [1] was 3.26 µM [rising, single point]. Under setting [2], the AC50 was 4.11 µM [rising, single point].
As to `Cc1ccc(CSc2nnc(-c3ccncc3)n2N)cc1`, the AC50 under setting [1] was 2.31 µM [rising, partial curve].
With `CC(C)CC(=O)Nc1ccc(S(=O)(=O)NCc2ccco2)cc1`, the cell number change was -29.8%. For the same compound, the concentration at half-maximal activity (AC50) under setting [1] was 0.13 µM [falling, full curve, poor fit]. The AC50 under setting [2] is 0.326 µM [falling, partial curve, poor fit].
Consider `O=C(Nc1ccccc1)N1CC=C(c2ccc(F)cc2)CC1`, for which the concentration at half-maximal activity (AC50) was 3.26 µM [rising, partial curve] under setting [1] and 6.51 µM [rising, single point] under setting [2].
On to `CC1(C)Cc2c(sc(NC(=O)C(=O)N3CCCCC3)c2C(=O)O)CO1`, for which the cell number change stood at 74.6%. The AC50 under setting [1] was 29.1 µM [rising, single point].
`CCN(CC)S(=O)(=O)c1ccc(OC)c(NC(=S)Nc2ccc(C)c(C)c2)c1`: the AC50 by setting is: under setting [1], 0.82 µM [falling, single point]; under setting [2], 3.26 µM [rising, full curve].
Turning to `Cc1[nH]n(-c2cccc3ccccc23)c(=O)c1/C=N/c1sc2c(c1C#N)CCC2`, the cell number change is -10.6%. The AC50 under setting [2] was 0.58 µM [rising, single point].
On to `Cc1ccc(S(=O)(=O)CCC(=O)c2ccc(O)cc2O)cc1`, for which the cell number change was 6.08%.
For `Cc1ccccc1NC(=S)N(CCN1CCCCCC1)Cc1cccs1`, the cell number change turned out to be 50.2%. The half-maximal activity concentration (AC50) under setting [1] was 10.3 µM [rising, partial curve, poor fit].
With `S=C(NC1CC1)N1CCN(C(=S)NC2CC2)CC1`, the cell number change was found to be 36.8%. In addition, the half-maximal activity concentration (AC50) under setting [1] is 32.6 µM [rising, partial curve, poor fit]. Also, the half-maximal activity concentration (AC50) under setting [2] was 29.1 µM [rising, single point].
For `O=C(OC1CCCCC1=O)c1cc(Cl)ccc1[N+](=O)[O-]` (stereo not given), the cell number change was -111%. Moreover, the concentration at half-maximal activity (AC50) under setting [1] was 23.1 µM [falling, partial curve]. In addition, the AC50 under setting [2] was 0.259 µM [falling, partial curve].
Consider `CC(=O)c1c(C)[nH]c(C(=O)COc2ccc3c(C)cc(=O)oc3c2)c1C`, for which the cell number change is -16.8%. Moreover, the AC50 under setting [2] was 1.84 µM [falling, partial curve].
For the compound `COC(=O)c1ccc2c(=O)n(-c3ccccc3)c(SCN3C(=O)c4ccccc4C3=O)nc2c1`, the cell number change is -4.87%.
For `CCC(c1nnnn1C(C)(C)CC)N(CCN1CCOCC1)Cc1cc2cc(C)ccc2[nH]c1=O` (stereo not given), the cell number change came out at 2.95%. The AC50 under setting [1] was 0.00461 µM [rising, full curve, poor fit]. Moreover, under setting [2], the AC50 is 0.411 µM [rising, full curve, poor fit].
`O=C(Nc1sc2c(c1C(=O)NC1CCCCC1)CCC2)c1ccco1`: the AC50 is, setting by setting: under setting [1], 0.411 µM [rising, single point]; under setting [2], 0.146 µM [rising, full curve, poor fit].
As to `O=C(O)CCCCCN1C(=O)C(O)=C(C(=O)/C=C/c2ccccc2)C1c1cccc([N+](=O)[O-])c1` (stereo not given), the cell number change is 3.5%.
As for `CC(C)[C@H](NC(=O)c1ccccc1)C(=O)OCC(=O)N1CCCCCC1`, the cell number change is -70.9%. Moreover, the AC50 under setting [1] is 29.1 µM [falling, single point]. Further, under setting [2], the AC50 is 4.61 µM [falling, partial curve].
Turning to `COC(=O)c1ccc(NC(=O)C2CCCN2C(=O)OCc2ccccc2)cc1` (stereo not given), the cell number change was determined as 40.6%. For the same compound, the AC50 under setting [1] is 23.1 µM [rising, single point].
Take `COc1ccc(CC(=O)NNC(=O)CSc2nc(C)c(C)c(=O)[nH]2)cc1`: the cell number change was 33.7%.
Take `O=[N+]([O-])c1ccc(/C=N/Nc2nc(-c3ccccc3)c3cc(Br)ccc3n2)o1`: under setting [1], the concentration at half-maximal activity (AC50) is 0.231 µM [rising, full curve, poor fit].
For `Cc1cc(C(=O)NCCCn2ccnc2)cs1`, the cell number change came to 15.4%. The AC50 under setting [2] was 16.4 µM [rising, single point].
As to `COc1ccccc1OC(=O)CCN1c2ccccc2Sc2ccccc21`, the cell number change came to 11.3%. Also, the AC50 under setting [2] was 6.51 µM [rising, partial curve].
Turning to `CC(C)Oc1ccc(CCc2nnc(SCC(=O)O)n2-c2ccccc2)cc1`, the cell number change is -51.9%.
Turning to `O=C(Nc1ccccn1)C1CCCN(c2ncnc3c2nc2n3CCCCC2)C1` (stereo not given), the cell number change was -26.7%. In addition, the AC50 under setting [1] was 2.91 µM [falling, full curve, poor fit]. Moreover, under setting [2], the AC50 is 1.84 µM [falling, partial curve].
Take `CC(=O)Nc1ccc(OCC(O)CN2CCN(S(=O)(=O)c3ccc(NC(C)=O)cc3)CC2)cc1` (stereo not given): the cell number change was -15.1%. Besides, the AC50 under setting [1] was 0.082 µM [falling, full curve, poor fit]. Also, the AC50 under setting [2] was 0.411 µM [falling, full curve].
Turning to `CCC(=O)c1ccc(OCCn2cnc3ccccc32)cc1`, the cell number change stood at 77.2%. Besides, under setting [1], the AC50 was 20.6 µM [rising, single point]. Under setting [2], the AC50 is 0.103 µM [rising, full curve, poor fit].
